Experimental data as given in patent publication US7417026B2, “Mobilization of hematopoietic cells” (Children's Hospital Medical Center, priority 2003, dated 2008).
At least one structure is not confirmed: it was looked up by name or label, or the drawing left a doubt.

Tests used:
[1] = test system: WT HSC/P cells; assay: Cell cycle analysis of HSC/P after SCF stimulation (cells in S+G2/M); format: cell-based, mice; conditions: 20 μM
Description: To further analyze the mechanism, by which Rac1 affects proliferation in primitive HSC/P cells, cell cycle analysis was performed after stimulation with 100 ng/ml SCF. […] In contrast, the number of Rac2−/− cells in S+G2/M phases was similar to WT cells. The delay in entry into S phase was significant by 24 hours after SCF addition and persisted at 48 hours. This defect in cell cycle progression appeared directly related to Rac1 deficiency, since expression of Rac1 protein using retrovirus-mediated gene transfer restored cycle progression in Rac1−/− cells [33+4 vs. 19+3 vs. 34+3; % cells in S+G2/M, WT vs. Rac1−/− vs. Rac1−/− (Rac1+), p<0.01 Rac1−/− vs. Rac1−/− (Rac1+)].

[2] = test system: WT HSC/P cells; assay: Apoptosis of HSC/P following SCF stimulation (Annexin-V); format: cell-based, mice; conditions: 20 μM
From the text: By contrast, Rac2 appears to play no role in proliferation but regulated cell survival through the known anti-apoptotic protein Akt (Kennedy, et al. Genes Dev. 11, 701-13, 1997). Rac2 but not Rac1 deficiency was associated with increased frequency of both early (Annexin-V+) and late (Annexin V+/7AAD+) apoptotic cells (FIG. 2F) and expression of the Rac2 cDNA in Rac2−/− HSC/P led to a complete reversal of the apoptotic phenotype [4.4+0.8 vs. 6.6+1.3, vs. 3.1+0.7; % Annexin-V+ cells, WT vs. Rac2−/− vs. Rac−/− (Rac2+); p<0.01 Rac2−/− vs. Rac2−/− (Rac2+)]. Loss of both Rac1 and Rac2 activities was associated with a more severe apoptotic phenotype compared with deficiency of only Rac2 GTPase activity (FIG. 2D). […] The reduced Akt activation was close to normal in Rac1−/− cells.

O=c1cc(N2CCOCC2)oc2c(-c3ccccc3)cccc12 [Ly294002]
cell cycle progression [1]: Some inhibition | apoptosis following SCF stimulation [2]: significantly increased apoptosis
